Reference: US10912763B2 (priority 2010, dated 2021)

Test system: painful diabetic neuropathy
Details: both, human, in vivo

CN1CC[C@]23c4c5ccc(O)c4O[C@H]2[C@@H](O)C=C[C@H]3[C@H]1C5 [morphine]
TEAEs (%) ECG QT prolonged: 0%
